PubChem BioAssay AID1259308 | NCATS – 2017
Test: 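Genes whose loss raises luciferase production in HEK293 cells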 (primary screen). Cells: human HEK293 embryonic kidney cells stably expressing firefly luciferase (HEK-CMV-Luc2-Hygro). Reagent: single siRNA against human genes, 0.8 pmol siRNA per well. Time to read-out: 72 h. Detection: 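Reporter luminescence and viable-cell signal on separate replicate plates, given as percent of non-targeting control and median/MAD z-scores, plus per-cell luciferase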. Direction: total luciferase, z-score and total luciferase, % of control: higher = more reporter protein produced. Hit rule: 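An siRNA counts as active if its total luciferase robust z-score exceeds 3; genes with two or more such siRNAs out of three were retested with fresh siRNAs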. Meaning of the calls: active = raised luciferase; inactive = no rise.
In all, the deposit lists about 59,000 reagents; below is an unselected part. About 1,510 of all reagents (2.6%) were called active. 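Calls use total luciferase alone and ignore viability, so some active siRNAs may act by altering cell number.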 Not all columns of the deposit are shown.

target gene	PubChem SID	total luciferase, z-score	total luciferase, % of control	Outcome
GNGT2 (GeneID 2793)	SID160772316	-0.373	74.5	inactive
GNGT2 (GeneID 2793)	SID160772324	1.22	106	inactive
GNGT2 (GeneID 2793)	SID160772334	0.59	93.6	inactive
OR14J1 (GeneID 442191)	SID160768143	0.0585	83	inactive
OR14J1 (GeneID 442191)	SID160768144	-0.954	62.9	inactive
OR14J1 (GeneID 442191)	SID160768145	-0.542	71.1	inactive
MTX1 (GeneID 4580)	SID160777559	-0.0555	80.8	inactive
MTX1 (GeneID 4580)	SID160777560	0.475	91.3	inactive
MTX1 (GeneID 4580)	SID160777561	-0.393	74.1	inactive
CBR4 (GeneID 84869)	SID160752813	-0.885	64.3	inactive
CBR4 (GeneID 84869)	SID160752814	0.933	100	inactive
CBR4 (GeneID 84869)	SID160752816	-1.65	49.1	inactive
USP8P1 (GeneID 100287272)	SID160774331	0.478	91.4	inactive
USP8P1 (GeneID 100287272)	SID160774332	-0.301	75.9	inactive
USP8P1 (GeneID 100287272)	SID160774333	-0.541	71.1	inactive
DCST2 (GeneID 127579)	SID160756646	3.02	142	active
DCST2 (GeneID 127579)	SID160756647	1.05	103	inactive
DCST2 (GeneID 127579)	SID160756648	0.192	85.7	inactive
DTNBP1 (GeneID 84062)	SID160751643	0.453	90.9	inactive
DTNBP1 (GeneID 84062)	SID160751644	0.0962	83.8	inactive
DTNBP1 (GeneID 84062)	SID160751645	-0.465	72.6	inactive
VAX1 (GeneID 11023)	SID160729768	0.884	99.5	inactive
VAX1 (GeneID 11023)	SID160729769	1.62	114	inactive
VAX1 (GeneID 11023)	SID160730495	-0.0194	81.5	inactive
SPMIP6 (GeneID 84688)	SID160735110	-0.21	77.7	inactive
SPMIP6 (GeneID 84688)	SID160752595	1.12	104	inactive
SPMIP6 (GeneID 84688)	SID160752596	0.922	100	inactive
CBLN4 (GeneID 140689)	SID160757836	-0.128	79.4	inactive
CBLN4 (GeneID 140689)	SID160757837	2.03	122	inactive
CBLN4 (GeneID 140689)	SID160757838	-0.866	64.7	inactive
TTLL7 (GeneID 79739)	SID160749327	0.533	92.5	inactive
TTLL7 (GeneID 79739)	SID160749328	-0.81	65.8	inactive
TTLL7 (GeneID 79739)	SID160749329	-0.748	67	inactive
TNS3 (GeneID 64759)	SID160747913	0.0265	82.4	inactive
TNS3 (GeneID 64759)	SID160747914	-2.25	37.2	inactive
TNS3 (GeneID 64759)	SID160747915	-2.11	40	inactive
SERPINB3 (GeneID 6317)	SID160716370	-1.74	47.4	inactive
SERPINB3 (GeneID 6317)	SID160716371	-0.828	65.4	inactive
SERPINB3 (GeneID 6317)	SID160716372	1.13	104	inactive
LOC283788 (GeneID 283788)	SID160763041	1.19	106	inactive
LOC283788 (GeneID 283788)	SID160763043	0.236	86.6	inactive
LOC283788 (GeneID 283788)	SID160763044	0.27	87.3	inactive
KLRB1 (GeneID 3820)	SID160731170	-1.18	58.4	inactive
KLRB1 (GeneID 3820)	SID160776306	3.05	142	active
KLRB1 (GeneID 3820)	SID160776307	0.656	94.9	inactive
MSANTD4 (GeneID 84437)	SID160752239	0.0374	82.6	inactive
MSANTD4 (GeneID 84437)	SID160752240	-0.0497	80.9	inactive
MSANTD4 (GeneID 84437)	SID160752241	-0.323	75.5	inactive
TTC27 (GeneID 55622)	SID160743925	-0.132	79.3	inactive
TTC27 (GeneID 55622)	SID160743926	0.449	90.8	inactive
TTC27 (GeneID 55622)	SID160743927	-0.0935	80	inactive
TFR2 (GeneID 7036)	SID160717974	-1.05	61	inactive
TFR2 (GeneID 7036)	SID160717975	0.302	87.9	inactive
TFR2 (GeneID 7036)	SID160717976	-0.692	68.1	inactive
BZW2 (GeneID 28969)	SID160738894	0.232	86.5	inactive
BZW2 (GeneID 28969)	SID160738895	-0.508	71.8	inactive
BZW2 (GeneID 28969)	SID160738897	1.86	119	inactive
